# From the supplement of paper PMC8728848
# This is one part of the list.
# Experiments:
# Test in all cases: glycan array binding signal (z-score within array); higher = stronger binding
# Conditions in all cases: glycan notation: IUPAC condensed, linker removed
# [1] = target: Fuc(a1-2)Gal(b1-4)[Fuc(a1-3)]GlcNAc(b1-3)GalNAc
# In short: (§1)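 Glycan array data came from 3228 arrays in the Consortium for Functional Glycomics database, and only arrays with an available protein sequence were kept. Glycan names were put into IUPAC-condensed notation, and columns mapping to the same glycan were averaged. The binding signal is a within-array Z-score, averaged across arrays of one protein sequence run at different concentrations or buffers and across linkers. A negative Z-score can be read as non-binding.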
# [2] = target: Fuc(a1-2)Gal(b1-4)[Fuc(a1-3)]GlcNAc(b1-3)[Neu5Ac(a2-6)Gal(b1-4)GlcNAc(b1-6)]Gal(b1-4)Glc
# In short: as §1
# [3] = target: Fuc(a1-2)Gal3S(b1-4)GlcNAc
# In short: as §1
# [4] = target: Fuc(a1-2)Gal6S(b1-3)GlcNAc
# In short: as §1
# [5] = target: Fuc(a1-2)Gal6S(b1-3)GlcNAc6S
# In short: as §1
# Fuc(a1-2)Gal6S(b1-4)Glc = target: Fuc(a1-2)Gal6S(b1-4)Glc
# In short: as §1
# [6] = target: Fuc(a1-2)Gal6S(b1-4)Glc6S
# In short: as §1
# [7] = target: Fuc(a1-2)Gal6S(b1-4)GlcNAc
# In short: as §1
# Fuc(a1-2)[Gal(a1-3)]Gal = target: Fuc(a1-2)[Gal(a1-3)]Gal
# In short: as §1
# [8] = target: Fuc(a1-2)[Gal(a1-3)]Gal(b1-3)GalNAc
# In short: as §1
# [9] = target: Fuc(a1-2)[Gal(a1-3)]Gal(b1-3)GalNAc(b1-3)Gal(a1-4)Gal(b1-4)Glc
# In short: as §1
# [10] = target: Fuc(a1-2)[Gal(a1-3)]Gal(b1-3)GlcNAc
# In short: as §1
# [11] = target: Fuc(a1-2)[Gal(a1-3)]Gal(b1-3)GlcNAc(b1-2)Man(a1-3)[Fuc(a1-2)[Gal(a1-3)]Gal(b1-3)GlcNAc(b1-2)Man(a1-6)]Man(b1-4)GlcNAc(b1-4)GlcNAc
# In short: as §1
# [12] = target: Fuc(a1-2)[Gal(a1-3)]Gal(b1-3)GlcNAc(b1-2)Man(a1-3)[Fuc(a1-2)[Gal(a1-3)]Gal(b1-3)GlcNAc(b1-2)Man(a1-6)]Man(b1-4)GlcNAc(b1-4)[Fuc(a1-6)]GlcNAc
# In short: as §1
# [13] = target: Fuc(a1-2)[Gal(a1-3)]Gal(b1-3)GlcNAc(b1-3)GalNAc
# In short: as §1
# [14] = target: Fuc(a1-2)[Gal(a1-3)]Gal(b1-3)GlcNAc(b1-6)GalNAc
# In short: as §1
# [15] = target: Fuc(a1-2)[Gal(a1-3)]Gal(b1-4)Glc
# In short: as §1
# [16] = target: Fuc(a1-2)[Gal(a1-3)]Gal(b1-4)GlcNAc
# In short: as §1
# [17] = target: Fuc(a1-2)[Gal(a1-3)]Gal(b1-4)GlcNAc(b1-2)Man
# In short: as §1
# [18] = target: Fuc(a1-2)[Gal(a1-3)]Gal(b1-4)GlcNAc(b1-2)Man(a1-3)[Fuc(a1-2)[Gal(a1-3)]Gal(b1-4)GlcNAc(b1-2)Man(a1-6)]Man(b1-4)GlcNAc(b1-4)GlcNAc
# In short: as §1
# [19] = target: Fuc(a1-2)[Gal(a1-3)]Gal(b1-4)GlcNAc(b1-2)Man(a1-3)[Fuc(a1-2)[Gal(a1-3)]Gal(b1-4)GlcNAc(b1-2)Man(a1-6)]Man(b1-4)GlcNAc(b1-4)[Fuc(a1-6)]GlcNAc
# In short: as §1
# [20] = target: Fuc(a1-2)[Gal(a1-3)]Gal(b1-4)GlcNAc(b1-3)GalNAc
# In short: as §1
# [21] = target: Fuc(a1-2)[Gal(a1-3)]Gal(b1-4)GlcNAc(b1-3)[Fuc(a1-2)[Gal(a1-3)]Gal(b1-4)GlcNAc(b1-6)]GalNAc
# In short: as §1
# [22] = target: Fuc(a1-2)[Gal(a1-3)]Gal(b1-4)GlcNAc(b1-6)GalNAc
# In short: as §1
# [23] = target: Fuc(a1-2)[Gal(a1-3)]Gal(b1-4)[Fuc(a1-3)]Glc
# In short: as §1
# [24] = target: Fuc(a1-2)[Gal(a1-3)]Gal(b1-4)[Fuc(a1-3)]GlcNAc
# In short: as §1
# [25] = target: Fuc(a1-2)[Gal(a1-3)]Gal(b1-4)[Fuc(a1-3)]GlcNAc(b1-3)GalNAc
# In short: as §1
# [26] = target: Fuc(a1-2)[Gal(a1-4)]Gal(b1-4)GlcNAc
# In short: as §1
# [27] = target: Fuc(a1-2)[GalNAc(a1-3)]Gal
# In short: as §1
# [28] = target: Fuc(a1-2)[GalNAc(a1-3)]Gal(b1-3)GalNAc(a1-3)[Fuc(a1-2)]Gal(b1-4)GlcNAc
# In short: as §1
# [29] = target: Fuc(a1-2)[GalNAc(a1-3)]Gal(b1-3)GalNAc(b1-3)Gal(a1-4)Gal(b1-4)Glc
# In short: as §1
# [30] = target: Fuc(a1-2)[GalNAc(a1-3)]Gal(b1-3)GlcNAc
# In short: as §1
# [31] = target: Fuc(a1-2)[GalNAc(a1-3)]Gal(b1-3)GlcNAc(b1-2)Man(a1-3)[Fuc(a1-2)[GalNAc(a1-3)]Gal(b1-3)GlcNAc(b1-2)Man(a1-6)]Man(b1-4)GlcNAc(b1-4)GlcNAc
# In short: as §1
# [32] = target: Fuc(a1-2)[GalNAc(a1-3)]Gal(b1-3)GlcNAc(b1-2)Man(a1-3)[Fuc(a1-2)[GalNAc(a1-3)]Gal(b1-3)GlcNAc(b1-2)Man(a1-6)]Man(b1-4)GlcNAc(b1-4)[Fuc(a1-6)]GlcNAc
# In short: as §1
# [33] = target: Fuc(a1-2)[GalNAc(a1-3)]Gal(b1-3)GlcNAc(b1-3)GalNAc
# In short: as §1
# [34] = target: Fuc(a1-2)[GalNAc(a1-3)]Gal(b1-3)GlcNAc(b1-6)GalNAc
# In short: as §1
# [35] = target: Fuc(a1-2)[GalNAc(a1-3)]Gal(b1-4)Glc
# In short: as §1
# [36] = target: Fuc(a1-2)[GalNAc(a1-3)]Gal(b1-4)GlcNAc
# In short: as §1
# [37] = target: Fuc(a1-2)[GalNAc(a1-3)]Gal(b1-4)GlcNAc(b1-2)Man
# In short: as §1
# [38] = target: Fuc(a1-2)[GalNAc(a1-3)]Gal(b1-4)GlcNAc(b1-2)Man(a1-3)[Fuc(a1-2)[GalNAc(a1-3)]Gal(b1-4)GlcNAc(b1-2)Man(a1-6)]Man(b1-4)GlcNAc(b1-4)GlcNAc
# In short: as §1
# [39] = target: Fuc(a1-2)[GalNAc(a1-3)]Gal(b1-4)GlcNAc(b1-2)Man(a1-3)[Fuc(a1-2)[GalNAc(a1-3)]Gal(b1-4)GlcNAc(b1-2)Man(a1-6)]Man(b1-4)GlcNAc(b1-4)[Fuc(a1-6)]GlcNAc
# In short: as §1
# [40] = target: Fuc(a1-2)[GalNAc(a1-3)]Gal(b1-4)GlcNAc(b1-3)Gal(b1-4)GlcNAc
# In short: as §1
# [41] = target: Fuc(a1-2)[GalNAc(a1-3)]Gal(b1-4)GlcNAc(b1-3)Gal(b1-4)GlcNAc(b1-3)Gal(b1-4)GlcNAc
# In short: as §1
# [42] = target: Fuc(a1-2)[GalNAc(a1-3)]Gal(b1-4)GlcNAc(b1-3)GalNAc
# In short: as §1
# [43] = target: Fuc(a1-2)[GalNAc(a1-3)]Gal(b1-4)GlcNAc(b1-3)[Fuc(a1-2)[GalNAc(a1-3)]Gal(b1-4)GlcNAc(b1-6)]GalNAc
# In short: as §1
binder,measurement,setting,value
"MFG-E8 (Mus musculus), P21956 (protein) MQVSRVLAALCGMLLCASGLFAASGDFCDSSLCLNGGTCLTGQDNDIYCLCPEGFTGLVCNETERGPCSPNPCYNDAKCLVTLDTQRGDIFTEYICQCPVGYSGIHCETETNYYNLDGEYMFTTAVPNTAVPTPAPTPDLSNNLASRCSTQLGMEGGAIADSQISASSVYMGFMGLQRWGPELARLYRTGIVNAWTASNYDSKPWIQVNLLRKMRVSGVMTQGASRAGRAEYLKTFKVAYSLDGRKFEFIQDESGGDKEFLGNLDNNSLKVNMFNPTLEAQYIKLYPVSCHRGCTLRFELLGCELHGCSEPLGLKNNTIPDSQMSASSSYKTWNLRAFGWYPHLGRLDNQGKINAWTAQSNSAKEWLQVDLGTQRQVTGIITQGARDFGHIQYVASYKVAHSDDGVQWTVYEEQGSSKVFQGNLDNNSHKKNIFEKPFMARYVRVLPVSWHNRITLRLELLGC",glycan array binding signal (z-score),[1],0.914
same,glycan array binding signal (z-score),[2],0.079
same,glycan array binding signal (z-score),[3],-0.182
same,glycan array binding signal (z-score),[4],0.086
same,glycan array binding signal (z-score),[5],8.57
same,glycan array binding signal (z-score),Fuc(a1-2)Gal6S(b1-4)Glc,-0.377
same,glycan array binding signal (z-score),[6],0.059
same,glycan array binding signal (z-score),[7],-0.269
same,glycan array binding signal (z-score),Fuc(a1-2)[Gal(a1-3)]Gal,0.081
same,glycan array binding signal (z-score),[8],0.041
same,glycan array binding signal (z-score),[9],0.733
same,glycan array binding signal (z-score),[10],0.566
same,glycan array binding signal (z-score),[11],0.574
same,glycan array binding signal (z-score),[12],-0.101
same,glycan array binding signal (z-score),[13],0.812
same,glycan array binding signal (z-score),[14],0.488
same,glycan array binding signal (z-score),[15],0.449
same,glycan array binding signal (z-score),[16],-0.338
same,glycan array binding signal (z-score),[17],-0.357
same,glycan array binding signal (z-score),[18],0.572
same,glycan array binding signal (z-score),[19],-0.278
same,glycan array binding signal (z-score),[20],0.138
same,glycan array binding signal (z-score),[21],-0.052
same,glycan array binding signal (z-score),[22],1.55
same,glycan array binding signal (z-score),[23],-0.425
same,glycan array binding signal (z-score),[24],-0.585
same,glycan array binding signal (z-score),[25],2.33
same,glycan array binding signal (z-score),[26],-0.24
same,glycan array binding signal (z-score),[27],-0.22
same,glycan array binding signal (z-score),[28],-0.14
same,glycan array binding signal (z-score),[29],-0.286
same,glycan array binding signal (z-score),[30],-0.413
same,glycan array binding signal (z-score),[31],0.42
same,glycan array binding signal (z-score),[32],0.372
same,glycan array binding signal (z-score),[33],-0.12
same,glycan array binding signal (z-score),[34],-0.456
same,glycan array binding signal (z-score),[35],-0.78
same,glycan array binding signal (z-score),[36],0.409
same,glycan array binding signal (z-score),[37],1.1
same,glycan array binding signal (z-score),[38],-0.642
same,glycan array binding signal (z-score),[39],0.43
same,glycan array binding signal (z-score),[40],-0.277
same,glycan array binding signal (z-score),[41],0.121
same,glycan array binding signal (z-score),[42],0.039
same,glycan array binding signal (z-score),[43],-0.258

# Not a retest: an excerpt of the list.
binder,measurement,setting,value
"MFG-E8 (Mus musculus), P21956 (protein) MQVSRVLAALCGMLLCASGLFAASGDFCDSSLCLNGGTCLTGQDNDIYCLCPEGFTGLVCNETERGPCSPNPCYNDAKCLVTLDTQRGDIFTEYICQCPVGYSGIHCETETNYYNLDGEYMFTTAVPNTAVPTPAPTPDLSNNLASRCSTQLGMEGGAIADSQISASSVYMGFMGLQRWGPELARLYRTGIVNAWTASNYDSKPWIQVNLLRKMRVSGVMTQGASRAGRAEYLKTFKVAYSLDGRKFEFIQDESGGDKEFLGNLDNNSLKVNMFNPTLEAQYIKLYPVSCHRGCTLRFELLGCELHGCSEPLGLKNNTIPDSQMSASSSYKTWNLRAFGWYPHLGRLDNQGKINAWTAQSNSAKEWLQVDLGTQRQVTGIITQGARDFGHIQYVASYKVAHSDDGVQWTVYEEQGSSKVFQGNLDNNSHKKNIFEKPFMARYVRVLPVSWHNRITLRLELLGC",glycan array binding signal (z-score),[7],-0.269
same,glycan array binding signal (z-score),Fuc(a1-2)[Gal(a1-3)]Gal,0.081
